Results from PubChem BioAssay AID1508600 (Functional Genomics Laboratory (NCATS/FGL), 2020).
The whole screen tested about 53,000 sequences, of which about 3,700 (7%) were called active.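 Rule for the calls: active = gene knockdowns whose robust z-score for IL-1 alpha signal is at least 2 or at most -2, so actives lie on both sides; inactive = the rest.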 The list shows a part of the results.

Assay: Components of the Cytosolic LPS Sensing Pathway: Gene Identification via Genome-wide siRNA Screen;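 note: robust z of the log signal after scaling to non-targeting control siRNA wells of the plate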
Settings: RAW264.7 macrophages, IL-1a HTRF, actives lie on both sides, screened at 100 nM (by protocol), cells primed 5 h with Pam3CSK4 first
In short: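 RAW264.7 mouse macrophages reverse-transfected with single siRNAs (100 nM final) for 48h, primed with Pam3CSK4 for 5 hours, then transfected with LipidA for 24 hour. Supernatant IL-1a read by HTRF; values normalized to negative-control median, log-transformed robust z-scores.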
For GGAGCCUAUACUGAUUUAUTT against Tomm7, the z-score was active: 2.13. With GGUUUGCUUUUCGUAUCUATT against Ppp3r1 the z-score was inactive: -0.367. For GGGUGACAUGGUGACCAUCTT against Matk, the z-score was active: 3.54. In the case of GGUCAAGAAGUAUUUUGUCTT against Fbxo6, the z-score is reported as inactive: -0.83. With GCUAGAACAGAAAAGAACCTT against Kcnb1 the z-score was inactive: 0.13. In the case of GGAAGGGAGACAAAAUAUATT against Cnpy1, the z-score is reported as inactive: -1.38. With “GGACAAAGAAACUCAUAGGTT against A530021J07Rik” the z-score was inactive: 0.737. In the case of “GGUCAAAUCACUGAGUUUUTT against 9530080O11Rik”, the z-score is reported as inactive: 1.74. For CCAUAAAAACCAGAGAAAUTT against Plekhf2, the z-score was inactive: -0.778. With GCCUUAUCCAUAUCGACUATT against Arrdc1 the z-score was inactive: 0.831. For GCUCGUACAGAAAUACGUCTT against Psmc2, the z-score was inactive: 0.521. With GCCCUAAUCUAUGGGACAUTT against Tmem179 the z-score was active: 3.06. With GGAAAGCUAAUUUUGAAACTT against Cnep1r1 the z-score was inactive: -1.02. For CGACAUGGGAUUUGGCUUGTT against Rplp2, the z-score was inactive: 0.613. For GGAGUCUUUUGCAUAUUUUTT against Trav3-3, the z-score was inactive: -1.04. For GGUCUACGUGGCCAAAGUGTT against Txndc5, the z-score was inactive: 0.222. For GGAUGAGGAUGGCUAUAAGTT against Zc3h10, the z-score was inactive: 0.585. With GCUAACGAUAUUUAUCACGTT against Olfr385 the z-score was inactive: -0.474. For GGGAGAGAGAAAUUCAUAATT against Mtpn, the z-score was inactive: -1.14. In the case of GCGCAUGGUGCAGAACCUATT against Krt12, the z-score is reported as inactive: 0.31. With CCUUUUUGGGUUGCUCUGUTT against Slc39a1 the z-score was inactive: -1.55. For GGUCCGGUGAAAGGAUUUUTT against Spag11a, the z-score was inactive: 1.14. In the case of GGAAGCAUUAUUGGUCAAUTT against Tcf7l1, the z-score is reported as inactive: 1.42. For GGAAAUAAUCAGGUUUAUCTT against Col4a3, the z-score was inactive: -0.0485. For GGAAACAGAACAAGAUGUATT against Tnfsf13b, the z-score was inactive: -0.0717. For CCUGGCAGUAAUCACCAUUTT against Olfr1158, the z-score was inactive: -0.117. In the case of GGGCAAUUAGUAAAGGCUATT against Eif2s3x, the z-score is reported as active: 2.02. With GGAGGUGGAUCAUAUGACUTT against Lrrc45 the z-score was inactive: 0.882. With GGACAGUCUUUAGCUGAAATT against Slc2a10 the z-score was inactive: 1.51. In the case of GGAUAUCGAAGUGACAUCUTT against Rae1, the z-score is reported as inactive: -0.0796. In the case of GCGUGUCCUAUAGCAUCUGTT against Cela1, the z-score is reported as inactive: -0.106. With GGAAAUGUGUGAAAUAACCTT against Ube2k the z-score was inactive: 0.854. In the case of CGAAAACAGUUAGUUACCATT against Exog, the z-score is reported as inactive: 0.644. In the case of GGUCUUAUCAAGAAGUGUATT against Cpt1b, the z-score is reported as inactive: 0.883. For GGACAUAAUGCAAAACAUUTT against Dym, the z-score was inactive: 0.199. For CCUCUAGGUCAUUUUACCUTT against Scmh1, the z-score was inactive: -0.573. In the case of CCACCGUCUAUUUCAUUGUTT against Adora3, the z-score is reported as inactive: 1.01. In the case of CGCUGGUGGUAUAACCAAGTT against Wfdc6b, the z-score is reported as inactive: -1.06. With GGACUGUGACCUCAAAAAGTT against Ppp1r17 the z-score was inactive: 0.428. In the case of GGAUAAUGACCAACCUUCUTT against Fbxo7, the z-score is reported as inactive: -1.11. In the case of GGGCCAUUCAAACCACCAGTT against Vav3, the z-score is reported as inactive: -1.37. With GGCACAGGUUCCUUUUGAATT against Myct1 the z-score was inactive: -0.759. In the case of GGUUUUGUUACAAUAAAGGTT against Fbxl6, the z-score is reported as inactive: -0.29. With GGGAUUUUUUGUUGCCAUCTT against Pth1r the z-score was inactive: -0.115. With CCAACCAAAUCGUCGCCAUTT against Cdk7 the z-score was inactive: -1.15. For GGAGAGCUGGAACAAUAGCTT against Bcl2l2, the z-score was active: 2.26. With GGACUUUCUUCCAUCAAAUTT against Cilk1 the z-score was inactive: 1.7. In the case of GGUGGUCUGGUUCAAGGAUTT against Mylk, the z-score is reported as inactive: 0.682. With GGGCCAAGUUCCGAAAGAATT against Dmbx1 the z-score was inactive: -0.443. With GGGAUUGAAUCUUCUUCGCTT against Klhl28 the z-score was inactive: -0.349. In the case of CCGAAUGUGGAUGUGAUGATT against Sycp2, the z-score is reported as inactive: -0.464. With GCUGAAGUUUACUAUAACATT against Marco the z-score was inactive: 0.565. With GGACCUAAACUGUCAGGAGTT against Eif3g the z-score was inactive: 0.15. With CCUCUGAGUGAUACACUGUTT against Klk1b9 the z-score was inactive: -0.477. For CCUUCAGAAGUCGACUUGUTT against Rpl37, the z-score was inactive: 0.779. In the case of GGGCAGAAAAUCAUUUGUUTT against Anxa11, the z-score is reported as inactive: 0.0839. With GGAGAUCCAGGCAAUUUUUTT against Pink1 the z-score was inactive: 0.779. For GGUCCUACAGGAGAAGAUCTT against Tekt2, the z-score was active: -2.09. In the case of GCAUAAAACACUAAGGAAATT against Csn3, the z-score is reported as inactive: -0.00366. In the case of GGCCUGCAUAGAUGAGAACTT against Ppp1r12c, the z-score is reported as inactive: 0.147. For GGACACAUUCGAAUGAACCTT against Mkrn2, the z-score was inactive: 0.0809. In the case of GGAGAAAGCUCAGCAUACATT against Usp3, the z-score is reported as inactive: -0.484. For GGAAAUGAGCAAAACUUUUTT against Pcdhb22, the z-score was inactive: 0.966. For GGUCGUUACAGAAGAGUUUTT against Mageh1, the z-score was inactive: 1.48. With GGGUAUUGAUCAUUUUUGGTT against Rasal3 the z-score was inactive: -1.99. With GGUUUGAGAAUUUGAAGGUTT against Map2k3os the z-score was inactive: 0.273. With GGUUGUAGGUUAUAGCUGUTT against Dusp26 the z-score was inactive: 0.651. With GGUGUCAUUCACAAAAACUTT against Csnk1g1 the z-score was inactive: -1.09. For GCAAGAAGUGGAGUAUUUUTT against Alkbh2, the z-score was inactive: 0.369. In the case of CCUUGAUCAUUUUAAUUGGTT against Olfr913, the z-score is reported as inactive: -0.612. With GGCUCAGAACCUUCUGAAATT against Exoc7 the z-score was inactive: -0.443. With GGUUACCCAUGCAGUUGUUTT against Hspa5 the z-score was inactive: -0.24. For GGAUGAUAUUCUCAAGUUCTT against Psg26, the z-score was inactive: 0.00514. With GCUAAUUAAACGAAGCAUCTT against Lmo4 the z-score was inactive: 0.67. In the case of GGUGUGUUACUGAUGAUUCTT against Olfr669, the z-score is reported as inactive: -0.37. With GGAGAUCUAACUCUGUAUGTT against Hpse the z-score was inactive: -0.2. For GGUACCAACACAAGUAACATT against Dyrk1a, the z-score was inactive: -0.449. In the case of GGACAGCCUUGUGUCAAAATT against Ramp2, the z-score is reported as inactive: 0.295. In the case of GGCCUGAAAGACGAAGAGATT against Stk38, the z-score is reported as inactive: -0.0215. With CCUACUUCCUCCAUUUAGGTT against Ccdc162 the z-score was inactive: -1.31. In the case of GCCGGAAUGCCCUAAUUUCTT against Olfr684, the z-score is reported as inactive: -0.584. With GGCGGAACACAUGACUAGGTT against Ilf3 the z-score was inactive: 0.189. In the case of GGAAAGUUCUAAUGUUCAUTT against Sumo1, the z-score is reported as inactive: 1.55. With GGGACCUGUCGUCAGACUUTT against Gnb3 the z-score was inactive: 0.449. In the case of GGCUUUCAAUGAUUAGACATT against Ptpn20, the z-score is reported as inactive: 0.341. For GGAAUUUCAAGACAAAGGUTT against Skap2, the z-score was inactive: -1.24. With GGCCAGCAGACUAUUUAUUTT against Derl1 the z-score was inactive: 0.304. For GCGAACCUACGACUUCUACTT against Chst8, the z-score was inactive: 0.998. With GGAGGUGGUACAGUAGCAUTT against Olfm4 the z-score was inactive: -0.258. For GGAGAAGUCAUGAAACAAATT against Prkn, the z-score was inactive: 0.349. In the case of CCCAAAAGAUCACAAAGUUTT against Fbxw13, the z-score is reported as inactive: 1.17. In the case of CGACUACACAACCUUUGGGTT against Prl4a1, the z-score is reported as inactive: 0.232. For GGAAUUUCUCUUGGAAUUGTT against Rnft1, the z-score was inactive: 1.5. With “GGCCGUUUUAAGAAAGGCCTT against 5830427D03Rik” the z-score was inactive: 1.34. In the case of CCGAAUACGUGAAGACGCATT against Slc25a1, the z-score is reported as inactive: -0.967. In the case of GGUCUUGGCACAAUUACAUTT against Actl6a, the z-score is reported as active: -2.07. With GGGUACGGUUCAGUGACAATT against Insyn1 the z-score was inactive: -1.25. For CGAAAGUGAUCAAAUAGAATT against Zcchc12, the z-score was inactive: 0.478. With GGAAAACAAUGCCAAAGGGTT against Evx2 the z-score was inactive: 0.623. With GGUGGCUUCAUUUUAGAAGTT against Xpa the z-score was inactive: -0.879. In the case of “CCCUGCCUUCUGUUGAGAATT against 4930451I11Rik”, the z-score is reported as inactive: 1.13. With GGAAGUGAGAUGUCACUGATT against Ssc5d the z-score was inactive: 0.841. For GCCGUAACUCUUGACAAUGTT against Stoml2, the z-score was inactive: 0.326. For CGGUUUGAGUAUAUUGGAGTT against Sh3d19, the z-score was inactive: -0.192. In the case of GCGCAUAUUUUAUCAACUCTT against Plcb3, the z-score is reported as inactive: 0.38. For GGCUCAAGACUUAAAUUCATT against Olfr1100, the z-score was inactive: 0.437. With CGCCUUUUGGAAACGCAAATT against Sh3bp4 the z-score was inactive: -0.165.
